Data reported in PMC7145602.
Results are given in words; binding and its absence hold for the method and conditions named. Binding seen in cells or lysates may run through a third protein. Some entries that bind do so weakly or less than the wild type. Sequences can lack the tags named with a protein.

T1: SBP-GFP-UPF1-(610–914) (pEFh-SBP-GFP-hUPF1-(610–914)) (human) (UniProt Q92900)
T1 sequence: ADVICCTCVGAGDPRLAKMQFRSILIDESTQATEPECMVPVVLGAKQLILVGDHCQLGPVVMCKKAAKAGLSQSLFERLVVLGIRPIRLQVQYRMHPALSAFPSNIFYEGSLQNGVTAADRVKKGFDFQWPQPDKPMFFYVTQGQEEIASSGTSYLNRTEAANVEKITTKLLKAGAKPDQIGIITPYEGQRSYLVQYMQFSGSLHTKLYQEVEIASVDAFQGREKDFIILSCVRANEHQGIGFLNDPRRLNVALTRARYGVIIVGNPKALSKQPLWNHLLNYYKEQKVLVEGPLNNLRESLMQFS

T2: Flag-Regnase-1 (mouse) (UniProt Q5D1E7)
T2 sequence: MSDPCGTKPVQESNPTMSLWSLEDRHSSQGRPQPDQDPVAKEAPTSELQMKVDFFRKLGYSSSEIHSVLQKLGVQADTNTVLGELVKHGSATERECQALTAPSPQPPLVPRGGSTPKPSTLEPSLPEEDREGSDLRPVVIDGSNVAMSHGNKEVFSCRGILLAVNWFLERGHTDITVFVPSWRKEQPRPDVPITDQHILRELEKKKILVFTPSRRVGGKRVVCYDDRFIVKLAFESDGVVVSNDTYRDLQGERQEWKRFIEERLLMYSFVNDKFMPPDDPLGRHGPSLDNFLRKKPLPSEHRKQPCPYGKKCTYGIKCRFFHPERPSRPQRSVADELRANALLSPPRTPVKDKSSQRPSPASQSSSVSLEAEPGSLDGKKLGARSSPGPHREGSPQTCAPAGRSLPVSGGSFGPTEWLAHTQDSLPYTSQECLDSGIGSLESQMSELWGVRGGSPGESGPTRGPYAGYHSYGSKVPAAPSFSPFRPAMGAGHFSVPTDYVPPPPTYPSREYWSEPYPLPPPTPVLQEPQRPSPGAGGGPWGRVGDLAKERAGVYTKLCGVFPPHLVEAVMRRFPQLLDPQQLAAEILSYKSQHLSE

B1: HA-UPF1-(6–429) (pSR-HA-hUPF1-(6–429)) (domain or fragment, UniProt Q92900-2 6-429)
chain: YGPSSQTLTFLDTEEAELLGADTQGSEFEFTDFTLPSQTQTPPGGPGGPGGGGAGGPGGAGAGAAAGQLDAQVGPEGILQNGAVDDSVAKTSQLLAELNFEEDEEDTYYTKDLPIHACSYCGIHDPACVVYCNTSKKWFCNGRGNTSGSHIVNHLVRAKCKEVTLHKDGPLGETVLECYNCGCRNVFLLGFIPAKADSVVVLLCRQPCASQSSLKDINWDSSQWQPLIQDRCFLSWLVKIPSEQEQLRARQITAQQINKLEELWKENPSATLEDLEKPGVDEEPQHVLLRYEDAYQYQNIFGPLVKLEADYDKKLKESQTQDNITVRWDLGLNKKRIAYFTLPKTDSDMRLMQGDEICLRYKGDLAPLWKGIGHVIKVPDNYGDEIAIELRSSVGAPVEVTHNFQVDFVWKSTSFDRMQSALKT
B2: HA-UPF1-ΔNCT (amino acids 64–1027) (domain or fragment, UniProt Q92900-2 64-1027)
chain: GAGAGAAAGQLDAQVGPEGILQNGAVDDSVAKTSQLLAELNFEEDEEDTYYTKDLPIHACSYCGIHDPACVVYCNTSKKWFCNGRGNTSGSHIVNHLVRAKCKEVTLHKDGPLGETVLECYNCGCRNVFLLGFIPAKADSVVVLLCRQPCASQSSLKDINWDSSQWQPLIQDRCFLSWLVKIPSEQEQLRARQITAQQINKLEELWKENPSATLEDLEKPGVDEEPQHVLLRYEDAYQYQNIFGPLVKLEADYDKKLKESQTQDNITVRWDLGLNKKRIAYFTLPKTDSDMRLMQGDEICLRYKGDLAPLWKGIGHVIKVPDNYGDEIAIELRSSVGAPVEVTHNFQVDFVWKSTSFDRMQSALKTFAVDETSVSGYIYHKLLGHEVEDVIIKCQLPKRFTAQGLPDLNHSQVYAVKTVLQRPLSLIQGPPGTGKTVTSATIVYHLARQGNGPVLVCAPSNIAVDQLTEKIHQTGLKVVRLCAKSREAIDSPVSFLALHNQIRNMDSMPELQKLQQLKDETGELSSADEKRYRALKRTAERELLMNADVICCTCVGAGDPRLAKMQFRSILIDESTQATEPECMVPVVLGAKQLILVGDHCQLGPVVMCKKAAKAGLSQSLFERLVVLGIRPIRLQVQYRMHPALSAFPSNIFYEGSLQNGVTAADRVKKGFDFQWPQPDKPMFFYVTQGQEEIASSGTSYLNRTEAANVEKITTKLLKAGAKPDQIGIITPYEGQRSYLVQYMQFSGSLHTKLYQEVEIASVDAFQGREKDFIILSCVRANEHQGIGFLNDPRRLNVALTRARYGVIIVGNPKALSKQPLWNHLLNYYKEQKVLVEGPLNNLRESLMQFSKPRKLVNTINPGARFMTTAMYDAREAIIPGSVYDRSSQGRPSSMYFQTHDQIGMISAGPSHVAAMNIPIPFNLVMPPMPPPGYFGQANGPAAGRGTPKGKTGRGGRQKNRFGL
B3: HA-UPF1-ΔCT (amino acids 6–1027) (domain or fragment, UniProt Q92900-2 6-1027)
chain: YGPSSQTLTFLDTEEAELLGADTQGSEFEFTDFTLPSQTQTPPGGPGGPGGGGAGGPGGAGAGAAAGQLDAQVGPEGILQNGAVDDSVAKTSQLLAELNFEEDEEDTYYTKDLPIHACSYCGIHDPACVVYCNTSKKWFCNGRGNTSGSHIVNHLVRAKCKEVTLHKDGPLGETVLECYNCGCRNVFLLGFIPAKADSVVVLLCRQPCASQSSLKDINWDSSQWQPLIQDRCFLSWLVKIPSEQEQLRARQITAQQINKLEELWKENPSATLEDLEKPGVDEEPQHVLLRYEDAYQYQNIFGPLVKLEADYDKKLKESQTQDNITVRWDLGLNKKRIAYFTLPKTDSDMRLMQGDEICLRYKGDLAPLWKGIGHVIKVPDNYGDEIAIELRSSVGAPVEVTHNFQVDFVWKSTSFDRMQSALKTFAVDETSVSGYIYHKLLGHEVEDVIIKCQLPKRFTAQGLPDLNHSQVYAVKTVLQRPLSLIQGPPGTGKTVTSATIVYHLARQGNGPVLVCAPSNIAVDQLTEKIHQTGLKVVRLCAKSREAIDSPVSFLALHNQIRNMDSMPELQKLQQLKDETGELSSADEKRYRALKRTAERELLMNADVICCTCVGAGDPRLAKMQFRSILIDESTQATEPECMVPVVLGAKQLILVGDHCQLGPVVMCKKAAKAGLSQSLFERLVVLGIRPIRLQVQYRMHPALSAFPSNIFYEGSLQNGVTAADRVKKGFDFQWPQPDKPMFFYVTQGQEEIASSGTSYLNRTEAANVEKITTKLLKAGAKPDQIGIITPYEGQRSYLVQYMQFSGSLHTKLYQEVEIASVDAFQGREKDFIILSCVRANEHQGIGFLNDPRRLNVALTRARYGVIIVGNPKALSKQPLWNHLLNYYKEQKVLVEGPLNNLRESLMQFSKPRKLVNTINPGARFMTTAMYDAREAIIPGSVYDRSSQGRPSSMYFQTHDQIGMISAGPSHVAAMNIPIPFNLVMPPMPPPGYFGQANGPAAGRGTPKGKTGRGGRQKNRFGL
B4: SBP-GFP-UPF1-(610–914) (pEFh-SBP-GFP-hUPF1-(610–914)) (domain or fragment, UniProt Q92900-2 610-914)
chain: ADVICCTCVGAGDPRLAKMQFRSILIDESTQATEPECMVPVVLGAKQLILVGDHCQLGPVVMCKKAAKAGLSQSLFERLVVLGIRPIRLQVQYRMHPALSAFPSNIFYEGSLQNGVTAADRVKKGFDFQWPQPDKPMFFYVTQGQEEIASSGTSYLNRTEAANVEKITTKLLKAGAKPDQIGIITPYEGQRSYLVQYMQFSGSLHTKLYQEVEIASVDAFQGREKDFIILSCVRANEHQGIGFLNDPRRLNVALTRARYGVIIVGNPKALSKQPLWNHLLNYYKEQKVLVEGPLNNLRESLMQFS
B5: Myc-hUPF1-G495R/G497E (pCMV-Myc-hUPF1-G495R/G497E) (protein, UniProt Q92900-2 1-1118)
chain: MSVEAYGPSSQTLTFLDTEEAELLGADTQGSEFEFTDFTLPSQTQTPPGGPGGPGGGGAGGPGGAGAGAAAGQLDAQVGPEGILQNGAVDDSVAKTSQLLAELNFEEDEEDTYYTKDLPIHACSYCGIHDPACVVYCNTSKKWFCNGRGNTSGSHIVNHLVRAKCKEVTLHKDGPLGETVLECYNCGCRNVFLLGFIPAKADSVVVLLCRQPCASQSSLKDINWDSSQWQPLIQDRCFLSWLVKIPSEQEQLRARQITAQQINKLEELWKENPSATLEDLEKPGVDEEPQHVLLRYEDAYQYQNIFGPLVKLEADYDKKLKESQTQDNITVRWDLGLNKKRIAYFTLPKTDSDMRLMQGDEICLRYKGDLAPLWKGIGHVIKVPDNYGDEIAIELRSSVGAPVEVTHNFQVDFVWKSTSFDRMQSALKTFAVDETSVSGYIYHKLLGHEVEDVIIKCQLPKRFTAQGLPDLNHSQVYAVKTVLQRPLSLIQGPPRTEKTVTSATIVYHLARQGNGPVLVCAPSNIAVDQLTEKIHQTGLKVVRLCAKSREAIDSPVSFLALHNQIRNMDSMPELQKLQQLKDETGELSSADEKRYRALKRTAERELLMNADVICCTCVGAGDPRLAKMQFRSILIDESTQATEPECMVPVVLGAKQLILVGDHCQLGPVVMCKKAAKAGLSQSLFERLVVLGIRPIRLQVQYRMHPALSAFPSNIFYEGSLQNGVTAADRVKKGFDFQWPQPDKPMFFYVTQGQEEIASSGTSYLNRTEAANVEKITTKLLKAGAKPDQIGIITPYEGQRSYLVQYMQFSGSLHTKLYQEVEIASVDAFQGREKDFIILSCVRANEHQGIGFLNDPRRLNVALTRARYGVIIVGNPKALSKQPLWNHLLNYYKEQKVLVEGPLNNLRESLMQFSKPRKLVNTINPGARFMTTAMYDAREAIIPGSVYDRSSQGRPSSMYFQTHDQIGMISAGPSHVAAMNIPIPFNLVMPPMPPPGYFGQANGPAAGRGTPKGKTGRGGRQKNRFGLPGPSQTNLPNSQASQDVASQPFSQGALTQGYISMSQPSQMSQPGLSQPELSQDSYLGDEFKSQIDVALSQDSTYQGERAYQHGGVTGLSQY
B6: HA-UPF1-ΔNT (amino acids 64–1118) (domain or fragment, UniProt Q92900-2 64-1118)
chain: GAGAGAAAGQLDAQVGPEGILQNGAVDDSVAKTSQLLAELNFEEDEEDTYYTKDLPIHACSYCGIHDPACVVYCNTSKKWFCNGRGNTSGSHIVNHLVRAKCKEVTLHKDGPLGETVLECYNCGCRNVFLLGFIPAKADSVVVLLCRQPCASQSSLKDINWDSSQWQPLIQDRCFLSWLVKIPSEQEQLRARQITAQQINKLEELWKENPSATLEDLEKPGVDEEPQHVLLRYEDAYQYQNIFGPLVKLEADYDKKLKESQTQDNITVRWDLGLNKKRIAYFTLPKTDSDMRLMQGDEICLRYKGDLAPLWKGIGHVIKVPDNYGDEIAIELRSSVGAPVEVTHNFQVDFVWKSTSFDRMQSALKTFAVDETSVSGYIYHKLLGHEVEDVIIKCQLPKRFTAQGLPDLNHSQVYAVKTVLQRPLSLIQGPPGTGKTVTSATIVYHLARQGNGPVLVCAPSNIAVDQLTEKIHQTGLKVVRLCAKSREAIDSPVSFLALHNQIRNMDSMPELQKLQQLKDETGELSSADEKRYRALKRTAERELLMNADVICCTCVGAGDPRLAKMQFRSILIDESTQATEPECMVPVVLGAKQLILVGDHCQLGPVVMCKKAAKAGLSQSLFERLVVLGIRPIRLQVQYRMHPALSAFPSNIFYEGSLQNGVTAADRVKKGFDFQWPQPDKPMFFYVTQGQEEIASSGTSYLNRTEAANVEKITTKLLKAGAKPDQIGIITPYEGQRSYLVQYMQFSGSLHTKLYQEVEIASVDAFQGREKDFIILSCVRANEHQGIGFLNDPRRLNVALTRARYGVIIVGNPKALSKQPLWNHLLNYYKEQKVLVEGPLNNLRESLMQFSKPRKLVNTINPGARFMTTAMYDAREAIIPGSVYDRSSQGRPSSMYFQTHDQIGMISAGPSHVAAMNIPIPFNLVMPPMPPPGYFGQANGPAAGRGTPKGKTGRGGRQKNRFGLPGPSQTNLPNSQASQDVASQPFSQGALTQGYISMSQPSQMSQPGLSQPELSQDSYLGDEFKSQIDVALSQDSTYQGERAYQHGGVTGLSQY

Tests used:
[1] = biological target: T1, SBP-GFP-UPF1-(610–914) (pEFh-SBP-GFP-hUPF1-(610–914)) (human); assay: co-IP; anti-GFP antibody on protein G magnetic beads, lysates of transfected HeLa cells (0.1% NP-40, 150 mM NaCl, 10 mM Tris-HCl pH 8.0), 3 h at 4°C; GFP-UPF1 fragments precipitated
[2] = biological target: T2, Flag-Regnase-1 (mouse); assay: co-IP; anti-Flag antibody on protein G magnetic beads, lysates of transfected HeLa cells (0.1% NP-40, 150 mM NaCl, 10 mM Tris-HCl pH 8.0), 3 h at 4°C; Flag-Regnase-1 precipitated, UPF1 constructs blotted; λ protein phosphatase treatment of lysates and SMG1 knockdown are said to reduce or inhibit the association

Binder | binding [1] | binding [2]
B1 | binds | 
B2 |  | binds
B3 |  | binds
B4 |  | binds
B5 |  | binds
B6 |  | no binding
